Measured values: patent US10912839B2, “Methods of treating cancer using compounds containing a vascular disrupting agent” (priority 2008, dated 2021)
Not every detail of the peptide structures is certain; ends, links or a residue may be inferred. Non-standard residues stand in square brackets, D forms with d. Residues, ends and D or L forms follow the SMILES beside them. *: point of attachment. NH(Colchicin-10-yl) = COc1cc2c(c(OC)c1OC)-c1ccc(N*)c(=O)cc1[C@@H](NC(C)=O)CC2; FITC = O=C1OC2(c3ccc(O)cc3Oc3cc(O)ccc32)c2ccc(NC(=S)*)cc21; hPhe = N[C@@H](CCc1ccccc1)C(=O)O; Cit = NC(=O)NCCC[C@H](N)C(=O)O; βAla = NCCC(=O)O

Amino acid sequences for entries named in this document (tags omitted). Residues count along the entry.
UniProt P14780, 94-707: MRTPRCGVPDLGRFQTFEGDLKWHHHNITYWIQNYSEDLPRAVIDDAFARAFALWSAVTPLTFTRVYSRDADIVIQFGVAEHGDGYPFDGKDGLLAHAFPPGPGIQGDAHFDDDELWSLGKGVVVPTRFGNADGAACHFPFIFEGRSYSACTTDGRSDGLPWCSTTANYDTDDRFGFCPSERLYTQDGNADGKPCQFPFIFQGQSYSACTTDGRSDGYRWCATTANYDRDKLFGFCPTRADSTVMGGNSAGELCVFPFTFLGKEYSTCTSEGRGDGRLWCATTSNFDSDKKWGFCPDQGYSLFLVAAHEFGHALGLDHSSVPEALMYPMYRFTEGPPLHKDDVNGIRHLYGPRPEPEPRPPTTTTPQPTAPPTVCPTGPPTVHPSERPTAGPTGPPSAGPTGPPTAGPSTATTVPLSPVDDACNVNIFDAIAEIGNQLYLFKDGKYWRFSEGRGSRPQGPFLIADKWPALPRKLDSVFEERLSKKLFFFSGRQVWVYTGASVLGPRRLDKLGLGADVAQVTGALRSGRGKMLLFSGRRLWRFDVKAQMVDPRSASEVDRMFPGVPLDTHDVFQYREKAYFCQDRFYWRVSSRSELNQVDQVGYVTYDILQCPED
UniProt P09238, 99-476: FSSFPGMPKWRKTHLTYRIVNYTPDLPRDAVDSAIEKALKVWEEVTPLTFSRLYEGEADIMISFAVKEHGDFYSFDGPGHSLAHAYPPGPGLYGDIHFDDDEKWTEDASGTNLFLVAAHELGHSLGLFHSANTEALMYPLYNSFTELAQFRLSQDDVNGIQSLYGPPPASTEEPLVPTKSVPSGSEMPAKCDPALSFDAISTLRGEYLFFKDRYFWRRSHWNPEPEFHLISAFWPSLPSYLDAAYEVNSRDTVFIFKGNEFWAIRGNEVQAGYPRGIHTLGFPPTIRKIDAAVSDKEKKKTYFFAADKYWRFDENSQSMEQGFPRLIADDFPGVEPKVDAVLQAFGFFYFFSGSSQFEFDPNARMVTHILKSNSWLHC

Columns and labels:
HT1080 xenografts = assay: Dose response antitumour study, subcutaneous HT1080 xenografts; assay type: in vivo, Balb/C mice; details: for Growth delay: vs control
Method: ICT-2552 and ICT-2588 (‘prodrug’) were administered as a single dose via the intraperitoneal route to Balb/C mice bearing subcutaneous HT1080 xenografts. Each of the nine dosing groups comprised 8 mice. The anti-tumour effects of the compounds were assessed by determination of tumour volume and the existence of off-target toxicity was ascertained via monitoring mouse body weight.
The dosing groups evaluated ICT-2588 (prodrug) relative to the molar equivalent dose of ICT-2552 (warhead), and were: • 10% DMSO/oil (solvent control) • ICT-2588 at 37.5 mg/kg; 50.0 mg/kg; 62.5 mg/kg; 75.0 mg/kg • ICT-2552 at 7.5 mg/kg; 10.0 mg/kg; 12.5 mg/kg; 15 mg/kg Results

recombinant MMP-9 = recombinant MMP-9 (Homo sapiens, UniProt P14780); assay: Prodrug cleavage by recombinant MMP-9; assay type: biochemical; details: data not shown
recombinant MMP-2 = target: T1, recombinant MMP-2 (Homo sapiens, UniProt P08253); assay: Prodrug cleavage by recombinant MMP-2 (LC/MS/MS, mass spectrometry); assay type: biochemical; details: data not shown
T1 sequence (P08253 110-660): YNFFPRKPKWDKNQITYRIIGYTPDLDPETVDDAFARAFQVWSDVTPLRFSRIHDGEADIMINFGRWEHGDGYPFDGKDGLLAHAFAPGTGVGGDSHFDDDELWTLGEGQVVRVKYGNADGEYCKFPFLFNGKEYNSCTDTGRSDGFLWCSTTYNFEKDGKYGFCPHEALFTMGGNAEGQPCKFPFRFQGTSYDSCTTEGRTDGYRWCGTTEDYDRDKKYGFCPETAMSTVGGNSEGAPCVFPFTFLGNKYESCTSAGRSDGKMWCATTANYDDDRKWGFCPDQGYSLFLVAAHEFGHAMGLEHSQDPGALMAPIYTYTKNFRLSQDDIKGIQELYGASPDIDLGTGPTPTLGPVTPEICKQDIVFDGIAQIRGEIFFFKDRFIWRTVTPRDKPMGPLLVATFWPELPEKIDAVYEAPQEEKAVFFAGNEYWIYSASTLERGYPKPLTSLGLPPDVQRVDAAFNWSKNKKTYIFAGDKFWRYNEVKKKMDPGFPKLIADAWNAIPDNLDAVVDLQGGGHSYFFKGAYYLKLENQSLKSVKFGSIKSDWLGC

recombinant MMP-14 = recombinant MMP-14 (Homo sapiens, UniProt P50281); assay: Prodrug cleavage by recombinant MMP-14; assay type: biochemical; details: data not shown
recombinant MMP-10 = recombinant MMP-10 (Homo sapiens, UniProt P09238); assay: Prodrug cleavage by recombinant MMP-10; assay type: biochemical; details: data not shown
[1] = ICT-2588 37.5 mg/kg single i.p.
[2] = ICT-2588 50.0 mg/kg single i.p.
[3] = ICT-2588 62.5 mg/kg single i.p.
[4] = ICT-2588 75.0 mg/kg single i.p.

## COc1cc2c(c(OC)c1OC)-c1ccc(NC(=O)[C@H](Cc3ccc(O)cc3)NC(=O)[C@H](CC(C)C)NC(=O)[C@H](Cc3ccc(O)cc3)NC(=O)[C@H](CCc3ccccc3)NC(=O)CNC(=O)[C@H](CCCNC(N)=O)NC(=O)[C@H](CO)NC(=O)[C@H](CCCNC(=N)N)NC(=O)CCNC(=S)Nc3ccc4c(c3)C(=O)OC43c4ccc(O)cc4Oc4cc(O)ccc43)c(=O)cc1[C@@H](NC(C)=O)CC2 [ICT-2588] ({FITC-βAla}-RS[Cit]G[hPhe]YLY-{NH(Colchicin-10-yl)})
HT1080 xenografts; 62.5 mg/kg, final measurement day 21, group of 8 mice
  complete tumour remission: One animal demonstrated complete tumour remission
HT1080 xenografts; [1]
  Mean time to RTV2: 4.4 days
  Median time RTV2: 4.2 days
  Growth delay: 2.0 days
HT1080 xenografts; [2]
  Mean time to RTV2: 5.5 days
  Median time RTV2: 6.0 days
  Growth delay: 3.8 days
HT1080 xenografts; [3]
  Mean time to RTV2: 7.7 days
  Median time RTV2: 7.8 days
  Growth delay: 5.6 days
HT1080 xenografts; [4]
  Mean time to RTV2: 6.8 days
  Median time RTV2: 6.6 days
  Growth delay: 4.4 days
HT1080 xenografts; ICT-2588 compared with ICT-2552
  size of dose-related growth delay effect, prodrug versus warhead: effects being greater
HT1080 xenografts; all evaluated doses
  delay in tumour growth: significant delay in tumour growth
HT1080 xenografts; all tested dose levels
  tumour response: Tumour responses were observed
HT1080 xenografts; equimolar doses
  antitumour response versus warhead at equimolar doses: significantly greater antitumour response
HT1080 xenografts; following treatment with ICT2588
  tumour appearance following treatment: thin viable rim of tumour cells was observed at the tumour periphery
Recombinant MMP-9
  cleavage by recombinant MMP-9: not cleaved
Recombinant MMP-2
  cleavage by recombinant MMP-2: Cleaved slowly at the Homophenylalanine-Tyrosine (Hof-Tyr)
Recombinant MMP-14
  cleavage by recombinant MMP-14: Cleaved rapidly at the Glycine-Homophenylalanine (Gly-Hof)

## COc1cc2c(c(OC)c1OC)-c1ccc(NC(=O)[C@H](Cc3ccc(O)cc3)NC(=O)[C@H](CC(C)C)NC(=O)[C@H](Cc3ccc(O)cc3)NC(=O)[C@H](CCc3ccccc3)NC(=O)CNC(=O)[C@H](CCCNC(N)=O)NC(=O)[C@@H]3CCCN3C(=O)[C@H](CCC(=O)O)NC(=O)CCNC(=S)Nc3ccc4c(c3)C(=O)OC43c4ccc(O)cc4Oc4cc(O)ccc43)c(=O)cc1[C@@H](NC(C)=O)CC2 [Prodrug-1] ({FITC-βAla}-EP[Cit]G[hPhe]YLY-{NH(Colchicin-10-yl)})
Recombinant MMP-10
  cleavage by recombinant MMP-10: cleaved rapidly at the Glycine-Homophenylalanine (Gly-Hof)
Recombinant MMP-9
  cleavage by recombinant MMP-9: cleaved rapidly at the Glycine-Homophenylalanine (Gly-Hof)
Recombinant MMP-2
  cleavage by recombinant MMP-2: cleaved rapidly at the Glycine-Homophenylalanine (Gly-Hof)
Recombinant MMP-14
  cleavage by recombinant MMP-14: cleaved rapidly at the Glycine-Homophenylalanine (Gly-Hof)
